Laboratory results from patent publication US11980596B2 (priority 2017, dated 2024).

Settings: sodium heparin human plasma

With `CNC1(c2ccccc2Cl)CCCCC1=O` (racemic) [ketamine, reference compound] the “Lower limit of quantitation (LLOQ)” value was 0.500 ng/mL.
With `NC1(c2ccccc2Cl)CCCCC1=O` (centres unmarked) [Norketamine] the “Lower limit of quantitation (LLOQ)” value was 0.500 ng/mL.
